# Measured values taken from PubChem BioAssay (NCATS).
# Chains of the proteins cited; added tags and fusions are not shown. Lines headed by an entry give the natural chain unless they say otherwise; changes in a name come on top.
# UniProt Q03181: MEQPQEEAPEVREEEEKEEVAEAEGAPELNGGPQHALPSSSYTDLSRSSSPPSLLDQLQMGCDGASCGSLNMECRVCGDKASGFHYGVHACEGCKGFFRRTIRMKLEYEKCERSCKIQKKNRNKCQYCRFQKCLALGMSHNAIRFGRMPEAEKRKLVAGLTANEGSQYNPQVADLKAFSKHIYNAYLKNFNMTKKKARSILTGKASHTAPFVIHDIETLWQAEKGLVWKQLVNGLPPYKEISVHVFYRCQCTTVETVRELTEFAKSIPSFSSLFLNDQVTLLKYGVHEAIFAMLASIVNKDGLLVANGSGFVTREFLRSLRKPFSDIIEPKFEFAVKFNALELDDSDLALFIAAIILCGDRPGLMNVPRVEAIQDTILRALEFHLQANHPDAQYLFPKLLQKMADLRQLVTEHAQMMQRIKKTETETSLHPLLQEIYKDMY
# UniProt P10828: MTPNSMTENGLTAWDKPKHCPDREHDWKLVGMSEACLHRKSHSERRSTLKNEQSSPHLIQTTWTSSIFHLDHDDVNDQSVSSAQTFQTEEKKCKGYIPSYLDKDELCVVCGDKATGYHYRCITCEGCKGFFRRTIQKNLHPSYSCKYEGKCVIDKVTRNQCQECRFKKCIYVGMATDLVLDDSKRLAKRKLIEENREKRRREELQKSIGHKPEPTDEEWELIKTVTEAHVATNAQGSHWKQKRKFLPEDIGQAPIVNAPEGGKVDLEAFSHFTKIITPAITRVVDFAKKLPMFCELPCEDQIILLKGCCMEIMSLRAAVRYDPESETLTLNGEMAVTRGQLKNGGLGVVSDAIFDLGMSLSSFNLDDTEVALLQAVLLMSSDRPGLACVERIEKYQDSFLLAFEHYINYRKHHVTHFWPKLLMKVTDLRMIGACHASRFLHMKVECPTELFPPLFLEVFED
# UniProt P08684, whole entry, looked up: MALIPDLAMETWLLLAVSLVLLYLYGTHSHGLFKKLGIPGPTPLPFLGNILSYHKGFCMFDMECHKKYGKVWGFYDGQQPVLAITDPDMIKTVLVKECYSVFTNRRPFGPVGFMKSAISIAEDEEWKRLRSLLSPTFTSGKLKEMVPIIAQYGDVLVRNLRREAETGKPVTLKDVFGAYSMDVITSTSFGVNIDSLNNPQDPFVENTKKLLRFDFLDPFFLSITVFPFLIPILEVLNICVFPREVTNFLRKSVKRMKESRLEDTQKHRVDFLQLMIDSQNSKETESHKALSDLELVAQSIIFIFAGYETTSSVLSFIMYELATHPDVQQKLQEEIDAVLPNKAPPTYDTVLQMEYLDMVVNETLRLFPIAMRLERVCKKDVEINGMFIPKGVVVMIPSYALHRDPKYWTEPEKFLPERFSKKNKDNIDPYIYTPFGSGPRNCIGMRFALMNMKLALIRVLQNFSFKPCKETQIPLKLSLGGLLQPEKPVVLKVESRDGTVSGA
# UniProt P19793: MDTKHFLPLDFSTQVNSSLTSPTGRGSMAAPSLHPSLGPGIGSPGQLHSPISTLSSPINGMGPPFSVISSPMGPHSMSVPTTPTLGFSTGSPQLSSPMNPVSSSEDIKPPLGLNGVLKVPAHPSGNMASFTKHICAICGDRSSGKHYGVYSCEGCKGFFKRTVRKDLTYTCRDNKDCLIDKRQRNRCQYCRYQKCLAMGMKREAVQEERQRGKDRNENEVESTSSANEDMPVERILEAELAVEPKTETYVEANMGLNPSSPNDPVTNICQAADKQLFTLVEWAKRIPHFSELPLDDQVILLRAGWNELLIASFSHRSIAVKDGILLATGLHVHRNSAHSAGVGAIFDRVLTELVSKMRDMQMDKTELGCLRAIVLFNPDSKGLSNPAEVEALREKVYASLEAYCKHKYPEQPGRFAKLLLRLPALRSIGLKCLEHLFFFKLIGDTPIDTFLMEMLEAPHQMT
# UniProt P37231: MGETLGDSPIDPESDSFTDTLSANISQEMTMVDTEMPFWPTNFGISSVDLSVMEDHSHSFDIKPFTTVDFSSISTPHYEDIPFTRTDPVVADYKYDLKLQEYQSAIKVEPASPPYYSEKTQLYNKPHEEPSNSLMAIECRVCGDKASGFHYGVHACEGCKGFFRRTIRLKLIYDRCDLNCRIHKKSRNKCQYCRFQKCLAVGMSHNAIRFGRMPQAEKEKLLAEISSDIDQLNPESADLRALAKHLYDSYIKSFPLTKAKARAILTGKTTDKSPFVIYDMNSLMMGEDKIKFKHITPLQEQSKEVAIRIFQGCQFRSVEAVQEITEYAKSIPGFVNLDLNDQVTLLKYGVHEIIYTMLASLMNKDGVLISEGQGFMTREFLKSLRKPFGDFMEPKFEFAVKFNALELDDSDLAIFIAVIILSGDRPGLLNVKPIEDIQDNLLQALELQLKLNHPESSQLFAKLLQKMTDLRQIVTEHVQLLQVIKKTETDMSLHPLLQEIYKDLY
# UniProt P11473: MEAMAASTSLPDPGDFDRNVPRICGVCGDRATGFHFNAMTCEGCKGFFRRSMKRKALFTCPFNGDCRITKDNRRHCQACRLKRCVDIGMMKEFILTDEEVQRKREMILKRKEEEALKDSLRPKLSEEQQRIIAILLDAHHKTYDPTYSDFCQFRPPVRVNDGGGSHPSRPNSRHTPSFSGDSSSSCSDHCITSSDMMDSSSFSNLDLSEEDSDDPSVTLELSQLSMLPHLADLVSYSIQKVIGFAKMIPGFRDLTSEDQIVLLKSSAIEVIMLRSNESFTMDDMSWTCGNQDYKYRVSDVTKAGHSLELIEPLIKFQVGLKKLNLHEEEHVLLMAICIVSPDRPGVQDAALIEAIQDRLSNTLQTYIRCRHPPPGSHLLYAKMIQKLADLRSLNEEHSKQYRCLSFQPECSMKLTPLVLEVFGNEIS
# Inconclusive means that the source gave no clear call. Such entries were picked first, then a sample of the others. A call without a number means that no potency is given here. For part of these data: A potency beside an inconclusive call is a rough fit, not a confirmed value. For part of these data: “Side channel” marks fits to a control or component signal instead of the main read-out. The source made the active and inactive calls. Unless noted, calls come from the whole dose curve; as a rule, active = well fitted curve in the direction sought with a large enough effect; inconclusive = small, poorly fitted or top-dose-only effect, or another doubt; inactive = no such curve, though single readings can be large; an effect the other way counts as inactive or inconclusive.
# How the values were obtained:
# [1] = MultiTox-Fluor Cytotoxicity Assay - LYMP1-001 - Live Cells (AID 947); note: potency is the fitted concentration of half-maximal effect
# [2] = target: Peroxisome proliferator-activated receptor delta (Homo sapiens) (UniProt Q03181); test: qHTS assay for small molecule antagonists of peroxisome proliferator-activated receptor delta signaling (AID 588535; active = well fitted inhibition curve with a large enough effect in the signal ratio, with a control signal flat, not every such curve was filed as active; inconclusive = small, poorly fitted or top-dose-only effect, or effect the other way, or a change in a side signal; inactive = no such curve, though single readings can be large or run the other way; the % refers to the signal ratio; note: potency is the fitted concentration of half-maximal effect); details: HEK293T PPARd-UAS-bla, beta-lactamase FRET ratio, 18 h; activity change, negative = inhibition: at 76.7 µM (top of the series) unless noted
# How it was run: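 HEK293T PPAR-delta-UAS-bla cells, 4000/well, 2% charcoal/dextran FBS; 5 h 37 C; cpd titration; 18 h 37 C; CCF4 2 h RT; FI 460/530 nm; Hill fit → IC50, efficacy.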
# [3] = target: Thyroid hormone receptor beta (Homo sapiens) (UniProt P10828); test: qHTS assay for small molecule antagonists of thyroid hormone receptor beta signaling (AID 588547; active = well fitted inhibition curve with a large enough effect in the signal ratio, with a control signal flat, not every such curve was filed as active; inconclusive = small, poorly fitted or top-dose-only effect, or effect the other way, or a change in a side signal; the % refers to the signal ratio; note: potency is the fitted concentration of half-maximal effect;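 for activity change % (negative = inhibition): cells stimulated with 0.4 nM T3 agonist during compound exposure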); details: TR-UAS-bla HEK293, beta-lactamase ratio, antagonist mode, 18 h
# How it was run: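 Inhibition of T3-driven (0.4nM final) beta-lactamase reporter activity was measured over 0.59 nM to 92 uM compound after 18 h at 37 C. The cells were GripTite HEK293 TR-UAS-bla in charcoal/dextran-stripped serum, with CCF4 ratio read-out and IC50 from Hill fits.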
# [4] = qHTS assay for small molecule agonists of the antioxidant response element (ARE) signaling pathway (AID 651741; active = well fitted activation curve with a large enough effect in the signal ratio; inconclusive = small, poorly fitted or top-dose-only effect, or effect the other way, or a change in a side signal; the % refers to the signal ratio; note: potency is the fitted concentration of half-maximal effect); details: HepG2 ARE-bla reporter, beta-lactamase FRET ratio, 16 h; activation: at 96 µM (top of the series) unless noted
# How it was run: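 Quantitative HTS in HepG2 cells stably expressing an ARE-beta-lactamase reporter; 16 h compound exposure at 37 C, followed by 2 h room-temperature incubation with LiveBLAzer B/G FRET substrate and fluorescence measurement.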
# [5] = qHTS assay to identify small molecules that stimulate interleukin-8 (IL-8) secretion (AID 651758; active = well fitted activation curve with a large enough effect in the signal ratio; inconclusive = small, poorly fitted or top-dose-only effect, or effect the other way, or a change in a side signal; the % refers to the signal ratio; note: potency is the fitted concentration of half-maximal effect); details: HTRF ratio (665/615); activation: at 92.2 µM (top of the series)
# How it was run: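 Secreted IL-8 measured by TR-FRET sandwich (cryptate and XL665 antibodies) from THP-1 cells exposed to compound overnight (16 hrs, 37 C).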
# [6] = qHTS assay for small molecule antagonists of the retinoid-related orphan receptor gamma (ROR-gamma) signaling pathway - cell viability counter screen (AID 720652; active = well fitted curve in the direction sought with a large enough effect in the repeat runs; inconclusive = weak or mixed curves; inactive = no such curve, though single readings can be large; an effect the other way counts as inactive or inconclusive;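 note: compound exposure lasted 16 hr before ATP read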; note: potency is the fitted concentration of half-maximal effect)
# How it was run: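 CHO cells carrying TET-inducible ROR and RORE-luciferase reporter, plated 5 hr, then dosed with compound plus doxycycline. After 16 hr at 37 C, viability read as intracellular ATP by CellTiter-Glo luminescence.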
# [7] = target: Cytochrome P450 3A4 (Homo sapiens) (UniProt P08684); test: qHTS Assay for Inhibitors and Substrates of Cytochrome P450 3A4 (AID 884); note: nearly all actives have a fitted effect of over 50% in size
# How it was run: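 20 nM human CYP3A4 with 25 uM Luciferin-PPXE (at KM) in 200 mM KPO4, preincubated 10 min with compound; NADPH regeneration started a 60 min RT reaction. Luciferin detected by luminescence, normalized to 57 uM ketoconazole as full inhibition.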
# [8] = MultiTox-Fluor Cytotoxicity Assay - LYMP1-002 - Dead Cells (AID 960); details: LYMP1-002 lymphoblastoid cells, dead-cell protease fluorescence; cytotoxicity (dead cells): at 46.1 µM (top of the series); note: nearly all actives have a fitted effect of over 60% in size
# How it was run: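 Human lymphoblastoid LYMP1-002 cells, 2500/well, treated 16 h at 37 C; dead-cell protease cleavage of bis-AAF-R110 read by fluorescence (485/520); normalized to DMSO and 15 uM tetraoctylammonium bromide; AC50 from Hill fit.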
# [9] = Cell Viability - LYMP2-006 (AID 978); note: nearly all actives have a fitted effect of over 60% in size
# How it was run: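 Potency values are Hill-fit AC50s for decreases in intracellular ATP (CellTiter-Glo luminescence). LYMP2-006 lymphoblastoid cells, 2500 per well, were exposed to compound in complete culture medium for 24 hr at 37 C.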
# [10] = target: Retinoic acid receptor RXR-alpha (Homo sapiens) (UniProt P19793); test: qHTS assay for small molecule agonists of retinoid X receptor alpha signaling (AID 588544; calls by dose curve); details: HEK293T RXRa-UAS-bla, beta-lactamase reporter, 18 h; activation: at 76.7 µM (top of the series) unless noted
# [11] = target: Peroxisome proliferator-activated receptor delta (Homo sapiens) (UniProt Q03181); test: qHTS assay for small molecule agonists of peroxisome proliferator-activated receptor delta signaling (AID 588534; calls by dose curve); details: HEK293T PPARdelta-UAS-bla, beta-lactamase ratio, 18 h; activation: at 76.7 µM (top of the series)
# How it was run: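 Cells carrying a PPAR-delta beta-lactamase reporter were treated with compounds for 18 h at 37 °C in agonist mode. CCF4 fluorescence was read after 2 h; EC50 and efficacy from Hill fits.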
# [12] = target: Peroxisome proliferator-activated receptor gamma (Homo sapiens) (UniProt P37231); test: qHTS assay for small molecule antagonists of peroxisome proliferator-activated receptor gamma signaling (AID 588537; active = well fitted inhibition curve with a large enough effect in the signal ratio, with a control signal flat, not every such curve was filed as active; inconclusive = small, poorly fitted or top-dose-only effect, or effect the other way, or a change in a side signal; the % refers to the signal ratio;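 note: reporter cells co-stimulated with 50 nM rosiglitazone agonist during compound treatment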); details: HEK293 PPARg-UAS-bla, beta-lactamase ratio, antagonist mode; activity, negative = inhibition: at 76.8 µM (top of the series)
# How it was run: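 Antagonist mode, beta-lactamase reporter in HEK293; charcoal/dextran FBS 1%; 3000 cells/well, 37 C 6-6.5 h; cpd titration + rosiglitazone 50 nM final, 16 h 37 C; CCF4, 2 h RT; 460/530 nm; Hill fit → IC50, efficacy.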
# [13] = target: Vitamin D3 receptor (Homo sapiens) (UniProt P11473); test: qHTS assay for small molecule antagonists of vitamin D receptor signaling (AID 588541; calls by dose curve;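 note: receptor activated by calcitriol during compound treatment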); details: HEK293T VDR-UAS-bla, beta-lactamase ratio, antagonist mode; activity change, negative = inhibition: at 76.7 µM (top of the series)
# [14] = target: Retinoic acid receptor RXR-alpha (Homo sapiens) (UniProt P19793); test: qHTS assay for small molecule antagonists of retinoid X receptor alpha signaling (AID 588546; active = well fitted inhibition curve with a large enough effect in the signal ratio, with a control signal flat, not every such curve was filed as active; inconclusive = small, poorly fitted or top-dose-only effect, or effect the other way, or a change in a side signal; inactive = no such curve, though single readings can be large or run the other way; the % refers to the signal ratio;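 note: cells stimulated with 9-cis-retinoic acid as agonist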); details: HEK293T RXRa-UAS-bla, beta-lactamase ratio, antagonist mode
# How it was run: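 Beta-lactamase reporter inhibition, read as CCF4 fluorescence ratio (ex 405, em 460/530 nm) after 2 h at RT. HEK293T UAS-bla cells, 2500/well, were stimulated with 9-cis-RA at 500 or 100 nM final alongside test compound for 18 h at 37 C.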
# [15] = target: Thyroid hormone receptor beta (Homo sapiens) (UniProt P10828); test: qHTS assay for small molecule agonists of thyroid hormone receptor beta signaling (AID 588545; calls by dose curve); details: TR-UAS-bla GripTite HEK 293, beta-lactamase ratio, agonist mode, 18 h; activation: at 76.7 µM, percent of T3 response, DMSO as zero
# How it was run: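 Compounds were tested as agonists in TR-UAS-bla-GripTite HEK 293 cells. After 18 hrs at 37 C, CCF4 substrate was added and fluorescence read after 2 hrs at room temperature.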
# [16] = Cellular Toxicity (caspase-3) Hek293 (AID 664); details: HEK293 caspase-3 activation, DMSO = 0%, 100 µM tamoxifen = 100%; at 92.2 µM (top of the series);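 note: cells exposed to compound for 16 h at 37 °C before readout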
# How it was run: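 HEK293 cells in complete medium treated 16 h at 37 °C, then Caspase-Glo 3/7 luminescence read after 20 min at room temperature. Normalized to DMSO and 100 uM tamoxifen; AC50 from Hill fit of concentration-response.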
# [17] = Cell Viability - LYMP2-014 (AID 983); note: nearly all actives have a fitted effect of over 50% in size
# How it was run: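 LYMP2-014 human lymphoblastoid cells, 2500/well, treated 24 h at 37 C in complete medium; viability by CellTiter-Glo ATP luminescence after 30 min at room temperature. AC50 from Hill fits of qHTS concentration-response; tetraoctylammonium bromide positive control.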
# [18] = Cell Viability - LYMP2-018 (AID 985);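 note: compound exposure lasted 24 hr at 37 °C; nearly all actives have a fitted effect of over 50% in size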
# How it was run: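 Human lymphoblastoid LYMP2-018 cells, 2500/well, settled 5 hr at 37 C then exposed to compound 24 hr at 37 C; intracellular ATP measured by CellTiter-Glo luminescence. AC50 from Hill-equation concentration-response fits.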
# [19] = target: Peroxisome proliferator-activated receptor gamma (Homo sapiens) (UniProt P37231); test: qHTS assay for small molecule agonists of peroxisome proliferator-activated receptor gamma signaling (AID 588536; active = well fitted curve in the direction sought with a large enough effect in the signal ratio, with a control signal flat, not every such curve was filed as active; inconclusive = small, poorly fitted or top-dose-only effect, or effect the other way, or a change in a side signal; inactive = no such curve, though single readings can be large or run the other way; the % refers to the signal ratio); details: HEK293 PPARg-UAS-bla, beta-lactamase ratio, 16 h; activation: at 76.7 µM (top of the series), percent of rosiglitazone response, DMSO as zero unless noted
# How it was run: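 GeneBLAzer PPAR-gamma-UAS-bla HEK293 cells in 1% charcoal/dextran-treated FBS medium were treated 16 h at 37 C with compounds. Beta-lactamase activity was read by CCF4 ratio (460/530 nm). Response was normalized to 2 uM rosiglitazone (100%) and DMSO, then Hill-fitted for EC50 and efficacy.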
# [20] = qHTS assay for small molecule activators of the p53 signaling pathway (AID 651743; active = well fitted activation curve with a large enough effect in the signal ratio, not every such curve was filed as active; inconclusive = small, poorly fitted or top-dose-only effect, or a change in a side signal; the % refers to the signal ratio); details: HCT-116 p53RE-bla, beta-lactamase FRET ratio, 16 h; activation: hits give high values
# How it was run: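 Read-out is fluorescence intensity from the LiveBLAzer B/G FRET substrate, added for 2 hours at room temperature after HCT-116 p53RE-bla cells had been incubated with compounds for 16 hours at 37 C.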
# [21] = qHTS assay for small molecule disruptors of the mitochondrial membrane potential - 1 hr assay (AID 651754; calls by dose curve; note: nearly all actives have a fitted effect of over 35% in size); details: ratio change, negative = depolarisation: at 92.2 µM (top of the series)
# How it was run: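 HepG2 cells, attached overnight, were exposed to compound for 1 hr at 37C, then stained 30 min with a potentiometric dye. Ratio of red aggregate (590nm) to green monomer (535nm) fluorescence reports membrane potential; collapse shifts signal toward green.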
compound,measurement,setting,value
Nc1ccc(Cl)c(Cl)c1,Potency,[1],"inconclusive: 50.1 µM [cytotoxic, single point]"
same,Potency,[2],inactive
same,activity change % (negative = inhibition),[3],inactive: 2.33%
same,Potency,[4],"inconclusive: 53.1 µM [activator, partial curve]"
same,Potency,[5],inactive
same,Potency,[6],"inconclusive: 59.6 µM [rising, partial curve]"
Nc1cc(Cl)ccc1Cl,Potency,[7],inactive
same,Potency,[8],inactive
same,Potency,[9],inactive
same,"activity change, negative = inhibition",[2],inconclusive: -10.1%
same,Potency,[10],inactive
same,Potency,[4],"inconclusive: 66.8 µM [activator, partial curve, poor fit]"
same,Potency,[5],"inconclusive: 66.8 µM [activator, partial curve, poor fit]"
same,Potency,[6],inactive
OC(Cn1cncn1)(c1ccc(F)cc1)c1ccccc1F (stereo not given),"activity change, negative = inhibition",[2],inconclusive: -15.5%
same,Potency,[4],inactive
COc1nn(C(=O)NS(=O)(=O)c2ccccc2OC(F)(F)F)c(=O)n1C,Potency,[11],inactive
same,"activity change, negative = inhibition",[2],inconclusive: 8.76%
same,Potency,[12],inactive
same,Potency,[13],inactive
same,Potency,[10],inactive
same,Potency,[4],inactive
CCNc1nc(NC(C)(C)C)nc(SC)n1,Potency,[2],inactive
same,max response,[14],inconclusive: -45.1%
same,activation,[4],inconclusive: 5.42%
CSSC,Potency,[1],"inconclusive: 0.631 µM [cytotoxic, full curve, poor fit]"
same,Potency,[8],inactive
same,Potency,[2],"inconclusive: 0.0018 µM [activator, full curve, poor fit]"
same,Potency,[13],inactive
same,activation,[15],inactive: -17.3%
same,Potency,[4],inactive
same,Potency,[5],inactive
CCCCCCCCCCCOC(=O)c1ccccc1C(=O)OCCCCCCCCCCC,caspase-3 activation,[16],inconclusive: 3.93%
same,Potency,[8],inactive
same,Potency,[17],inactive
same,Potency,[18],inactive
same,Potency,[2],inactive
same,Potency,[19],inactive
same,Potency,[12],inactive
same,Potency,[10],inactive
same,Potency,[3],"inconclusive: 0.126 µM [side channel, falling, full curve, poor fit]"
same,Potency,[4],inactive
same,activation,[20],inactive: 2.34%
same,Potency,[21],inactive
same,Potency,[5],"inconclusive: 21.1 µM [activator, partial curve, poor fit]"

# Random excerpt: 2 entries already listed.
compound,measurement,setting,value
CCCCCCCCCCCOC(=O)c1ccccc1C(=O)OCCCCCCCCCCC,Potency,[18],inactive
CSSC,activation,[15],inactive: -17.3%
